Reference: PMC5382265 (Nature Communications, 2017)
Strings that start with PEPTIDE1 are HELM notation: dots part the residues, brackets hold end groups and non-standard residues.

Assay: peptide synthesis
Conditions: whole synthesis, UV 215 nm

Row | Substance | final HPLC purity [%]
1 | PEPTIDE1{[CH2CO].Y.I.T.L.A.N.P.F.R.I.L.H.C.G.[am]}$PEPTIDE1,PEPTIDE1,1:R3-14:R3$$$V2.0 | >85
2 | PEPTIDE1{[CH2CO].Y.T.T.L.A.N.P.F.R.I.L.H.C.G.[am]}$PEPTIDE1,PEPTIDE1,1:R3-14:R3$$$V2.0 | >90
3 | PEPTIDE1{[CH2CO].[dY].A.V.W.P.N.C.R.T.C.G.[am]}$PEPTIDE1,PEPTIDE1,1:R3-8:R3$$$V2.0 | >95
4 | PEPTIDE1{[CH2CO].[dY].D.Y.P.G.D.H.C.Y.L.Y.G.T.C.G.[am]}$PEPTIDE1,PEPTIDE1,1:R3-9:R3$$$V2.0 | >90
5 | PEPTIDE1{[CH2CO].[dY].D.Y.P.G.D.Y.C.Y.L.Y.G.T.[am]}$PEPTIDE1,PEPTIDE1,1:R3-9:R3$$$V2.0 | >95
6 | PEPTIDE1{[CH2CO].[dY].D.Y.P.G.D.Y.C.Y.L.Y.G.[am]}$PEPTIDE1,PEPTIDE1,1:R3-9:R3$$$V2.0 | >95
7 | PEPTIDE1{[CH2CO].[dY].D.Y.P.G.D.Y.C.Y.L.[am]}$PEPTIDE1,PEPTIDE1,1:R3-9:R3$$$V2.0 | >90
8 | PEPTIDE1{[CH2CO].[dY].D.Y.P.G.D.Y.C.Y.[am]}$PEPTIDE1,PEPTIDE1,1:R3-9:R3$$$V2.0 | >90
9 | PEPTIDE1{[CH2CO].[dY].L.D.W.P.N.C.S.T.C.G.[am]}$PEPTIDE1,PEPTIDE1,1:R3-8:R3$$$V2.0 | >90
10 | PEPTIDE1{[CH2CO].[dY].L.E.W.P.N.C.N.T.C.G.[am]}$PEPTIDE1,PEPTIDE1,1:R3-8:R3$$$V2.0 | >90
11 | PEPTIDE1{[CH2CO].[dY].P.E.W.P.N.C.S.T.C.G.[am]}$PEPTIDE1,PEPTIDE1,1:R3-8:R3$$$V2.0 | >90
12 | PEPTIDE1{[CH2CO].[dY].S.W.P.N.A.P.E.I.W.K.C.C.G.[am]}$PEPTIDE1,PEPTIDE1,1:R3-13:R3$$$V2.0 | >95
13 | PEPTIDE1{[ac].[dY].D.Y.P.G.D.Y.S.Y.L.Y.G.T.C.G.[am]}$$$$V2.0 | >95
14 | ^Ac-DYDLRTPWLKRHACG-NH2 (N-acetyl; C-terminal amide) | >90
15 | ^Ac-DYDYPGDYC-NH2 (N-acetyl; C-terminal amide) | >90
16 | ^Ac-DYDYPGDYCYLY-NH2 | >95
17 | ^Ac-DYDYPGDYCYLYGTC-NH2 | >90
18 | ^Ac-DYDYPGDYCYLYGTCG-NH2 | >90
19 | ^Ac-DYDYPGDYCYLYGTSG-NH2 | >95
20 | ^Ac-DYDYPGDYSYLY-NH2 (N-acetyl; C-terminal amide) | >95
21 | ^Ac-DYLYGTCG-NH2 (N-acetyl; C-terminal amide) | >95
22 | ^Ac-DYQNRSIWLYGCCG-NH2 | >90
